Data source: PubChem BioAssay AID1259281 (Sanger Institute, 2017)
Shown is an unselected part of 794 deposited reagents. 22 of all reagents (2.8%) count as active. 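Calls rest on knock-down alone only; drug synergy scores play no part in them.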 Viability is capped at 1. Not given: the amount of reagent, the time to read-out.

Assay: 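Screen kinases and frequently colorectal-mutated genes for lethal knock-downs and drug partners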 (primary screen)
Cell system: human COLO678 colorectal cancer cell line
Reagents: siRNA pool against human genes
Treatment: anchor drugs at fixed doses: BYL719 1 µM, cetuximab 5 µg/ml or trametinib 10 nM; DMSO vehicle for the siRNA-alone arm
Detection: 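Cell viability compared with non-targeting pool wells, averaged over replicates; knock-down-alone effect also as robust z-score; synergy scores set knock-down plus drug against expected joint effect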
Direction: robust z-score, siRNA alone: higher = more viable cells; strongly negative means essential; viability, siRNA alone: higher = more surviving cells; synergy score with BYL719 and synergy score with trametinib and synergy score with cetuximab: higher = stronger synergistic killing with drug
Call rule: 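Called essential (knock-down alone) if knock-down by itself drops cell number to a robust z-score under -3; all others no change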
Calls: active = essential (knock-down alone); inactive = no change

gene	robust z-score, siRNA alone	viability, siRNA alone (fraction of control)	synergy score with BYL719	synergy score with trametinib	synergy score with cetuximab	outcome
OBSCN	0.473	1	-0.0919	-0.00101	0.0189	inactive
CSNK1G2	0.473	1	0.00308	0.0202	0.0488	inactive
CUL1	0.473	1	-0.0919	0.0542	-0.00853	inactive
TTK	0.473	1	-0.0755	0.0366	-0.0681	inactive
TSSK6	0.473	1	-0.0674	0.0426	0.0189	inactive
TRPM6	0.473	1	0.04	0.0277	-0.0382	inactive
EPHB3	-0.811	0.959	-0.081	0.0453	0.0286	inactive
TP53	-1.17	0.948	-0.078	-0.0195	-0.00447	inactive
TNK1	0.473	1	0.0811	0.0533	0.0571	inactive
TRIO	0.336	0.996	0.0202	0.0287	0.0418	inactive
TYRO3	-2.3	0.912	-0.156	-0.0131	-0.125	inactive
DGKA	0.473	1	-0.0735	0.0757	0.157	inactive

3 neighbouring records already listed, for reference:
gene	robust z-score, siRNA alone	viability, siRNA alone (fraction of control)	synergy score with BYL719	synergy score with trametinib	synergy score with cetuximab	outcome
TNK1	0.473	1	0.0811	0.0533	0.0571	inactive
TRIO	0.336	0.996	0.0202	0.0287	0.0418	inactive
TYRO3	-2.3	0.912	-0.156	-0.0131	-0.125	inactive

The listing continues.
gene	robust z-score, siRNA alone	viability, siRNA alone (fraction of control)	synergy score with BYL719	synergy score with trametinib	synergy score with cetuximab	outcome
CDK19	-0.982	0.954	-0.0785	0.00292	-0.111	inactive
MAP3K15	0.473	1	0.0417	0.0193	0.0339	inactive
NRAS	0.473	1	0.0117	0.00335	0.0193	inactive
PLK3	0.473	1	-0.0409	-0.0189	-0.0362	inactive
CDKN1A	0.473	1	-0.013	-0.0314	0.00456	inactive
CSNK1A1L	0.473	1	0.0475	0.0042	-0.0123	inactive
WT1	-2.4	0.909	-0.144	-0.0438	-0.037	inactive
EPHB2	0.473	1	-0.0643	0.00125	0.019	inactive
